From US6063789A, “Aminoisoquinolines and aminotheinopyridine derivatives and their use as anti-inflammatory agents” (priority 1996, dated 2000)
Counter-ions that a name gives are not always drawn. Some of these results come from one statement about several compounds together.

Biological target: T1, inducible isoform of the enzyme nitric oxide synthase (NOS) (Mus musculus, UniProt P29477)
T1 construct: Nitric oxide synthase is produced by cells in response to interferon-g (IFNg) and lipopolysaccharide (LPS); endogenous in cells; host or cells: J774A-1 murine macrophage cell line, induced with LPS and IFN-gamma; crude cell lysate
Assay: nitric oxide synthetase activity screen (conversion of 3H-L-arginine to 3H-L-citrulline by lysate of induced J774A-1 macrophages)
Assay type: biochemical
Conditions: lysate of LPS/IFNg-induced murine macrophage J774A-1 cells; 1 hour at room temperature; read-out: IC50 (the concentration of drug substance which gives 50% enzyme inhibition in the assay)

SMILES	IC50 [µM]
NC1=NCCc2ccsc21 [Example 71, 7-Amino-4,5-dihydrothieno[2,3-c]pyridine]	< 25
NC1=NC(c2ccncc2)Cc2ccccc21 (stereo not drawn) [Example 28, 1-Amino-3-(4-pyridyl)-3,4-dihydroisoquinoline hydrochloride]	< 25
NC1=NC(c2ccccc2)Cc2sccc21 (stereo not drawn) [Example 68, 4-Amino-6-phenyl-6,7-dihydrothieno[3,2-c]pyridine hydrochloride]	< 25
NC1=NC(c2ccccc2)Cc2c(F)cccc21 (stereo not drawn) [Example 16, 1-Amino-5-fluoro-3-phenyl-3,4-dihydroisoquinoline hydrochloride]	< 25
NC1=NC(c2nccs2)Cc2ccsc21 (stereo not drawn) [Example 61, 7-Amino-5-(2-thiazolyl)-4,5-dihydrothieno[2,3-c]pyridine hydrochloride]	< 25
NC1=NC(C2CC2)Cc2ccsc21 (stereo not drawn) [Example 53, 7-Amino-5-cyclopropyl-4,5-dihydrothieno[2,3-c]pyridine hydrochloride]	< 25
NC1=NC(c2ccsc2)Cc2ccccc21 (stereo not drawn) [Example 25, 1-Amino-3-(3-thienyl)-3,4-dihydroisoquinoline]	< 25
NC1=NC(c2ccccc2)Cc2cccc(F)c21 (stereo not drawn) [Example 17, 1-Amino-8-fluoro-3-phenyl-3,4-dihydroisoquinoline hydrochloride]	< 25
NC1=NC(c2cccs2)Cc2ccccc21 (stereo not drawn) [Example 24, 1-Amino-3-(2-thienyl)-3,4-dihydroisoquinoline hydrochloride]	< 25
NC1=NC(c2cccc(F)c2)Cc2ccccc21 (stereo not drawn) [Example 15, 1-Amino-3-(3-(fluoro)phenyl)-3,4-dihydroisoquinoline hydrochloride]	< 25
NC1=NC(c2ccc(F)cc2)Cc2c(F)cccc21 (stereo not drawn) [Example 36, 1-Amino-5-fluoro-3-(4-fluorophenyl)-3,4-dihydroisoquinoline hydrochloride]	< 25
NC1=NC(C2CCC2)Cc2ccsc21 (stereo not drawn) [Example 64, 7-Amino-5-(cyclobutyl)-4,5-dihydrothieno[2,3-c]pyridine hydrochloride]	< 25
NC1=NC(c2ccco2)Cc2ccccc21 (stereo not drawn) [Example 22, 1-Amino-3-(2-furyl)-3,4-dihydroisoquinoline hydrochloride]	< 25
NC1=NC(c2cccnc2)Cc2ccsc21 (stereo not drawn) [Example 52, 7-Amino-5-(3-pyridyl)-4,5-dihydrothieno[2,3-c]pyridine hydrochloride]	< 25
CC#CC1Cc2ccsc2C(N)=N1 (stereo not drawn) [Example 60, 7-Amino-5-propynyl-4,5-dihydrothieno[2,3-c]pyridine hydrochloride]	< 25
CCCC1Cc2ccsc2C(N)=N1 (stereo not drawn) [Example 67, 7-Amino-5-propyl-4,5-dihvdrothieno[2,3-c]pyridine hydrochloride]	< 25
Cn1cccc1C1Cc2ccsc2C(N)=N1 (stereo not drawn) [Example 58, 7-Amino-5-(1-methyl-2-pyrrolyl)-4,5-dihydrothieno[2,3-c]pyridine hydrochloride]	< 25

SMILES	IC50 [µM]
NC1=NC(c2ccc(F)cc2)Cc2cccc(F)c21 (stereo not drawn) [Example 37, 1-Amino-8-fluoro-3-(4-fluorophenyl)-3,4-dihydroisoquinoline hydrochloride]	< 25
NC1=NC(c2cccs2)Cc2ccsc21 (stereo not drawn) [Example 56, 7-Amino-5-(2-thienyl)-4,5-dihydrothieno[2,3-c]pyridine hydrochloride]	< 25
NC1=NC(c2ccoc2)Cc2ccsc21 (stereo not drawn) [Example 54, 7-Amino-5-(3-furyl)-4,5-dihydrothieno[2,3-c]pyridine hydrochloride]	< 25
NC1=NCCc2sccc21 [Example 72, 4-Amino-6,7-dihydrothieno[3,2-c]pyridine hydroiodide]	< 25
C#CC1Cc2ccsc2C(N)=N1 (stereo not drawn) [Example 59, 7-Amino-5-ethynyl-4,5-dihydrothieno[2,3-c]pyridine hydrochloride]	< 25
NC1=NC(C2CC2)Cc2ccccc21 (stereo not drawn) [Example 29, 1-Amino-3-cyclopropyl-3,4-dihydroisoquinoline hydrochloride]	< 25
C#CC1Cc2cc(C)sc2C(N)=N1 (stereo not drawn) [Example 65, 7-Amino-5-ethynyl-2-methyl-4,5-dihydrothieno[2,3-c]pyridine hydrochloride]	< 25
C#CC1Cc2sccc2C(N)=N1 (stereo not drawn) [Example 69, 4-Amino-6-ethynyl-6,7-dihydrothieno[3,2-c]pyridine hydrochloride]	< 25
NC1=NC(c2ccco2)Cc2ccsc21 (stereo not drawn) [Example 55, 7-Amino-5-(2-furyl)-4,5-dihydrothieno[2,3-c]pyridine hydrochloride]	< 25
NC1=NC(c2ccccc2)Cc2ccsc21 (stereo not drawn) [Example 51, 7-Amino-5-phenyl-4,5-dihydrothieno[2,3-c]pyridine hydrochloride]	< 25
CCC1Cc2ccsc2C(N)=N1 (stereo not drawn) [Example 66, 7-Amino-5-ethyl-4,5-dihvdrothieno[2,3-c]pyridine hydrochloride]	< 25
NC1=NC(c2ccoc2)Cc2ccccc21 (stereo not drawn) [Example 23, 1-Amino-3-(3-furyl)-3,4-dihydroisoquinoline hydrochloride]	< 25
NC1=NC(c2ccco2)Cc2cccc(Cl)c21 (stereo not drawn) [Example 26, 1-Amino-8-chloro-3-(2-furyl)-3,4-dihydroisoquinoline hydrochloride]	< 25
NC1=NC(c2ccc(F)cc2)Cc2c(F)ccc(F)c21 (stereo not drawn) [Example 38, 1-Amino-5,8-difluoro-3-(4-fluorophenyl)-3,4-dihydroisoquinoline hydrochloride]	< 25
NC1=NC(C2CC2)Cc2sccc21 (stereo not drawn) [Example 70, 4-Amino-6-cyclopropyl-6,7-dihydrothieno[3,2-c]pyridine hydrochloride]	< 25
NC1=NC(c2ccc(F)cc2)Cc2ccccc21 (stereo not drawn) [Example 14, 1-Amino-3-(4-(fluoro)phenyl)-3,4-dihydroisoquinoline hydrochloride]	< 25
